The list does not hold the whole screen: it gathers tests that were run many times, whatever their T/C, doses with no T/C, and many T/C values between a quarter and a half above the control. Other doses and runs of a compound stand elsewhere. T/C gives the treated animals as a percentage of the vehicle group. Some doses have a count of surviving animals in place of a T/C: the source holds a T/C of zero for them, seemingly a mark for toxic or unscored doses. Some survivor counts are full or nearly so, which does not show that the dose was tolerated: the source hardly ever lists a survival T/C far under the control, and the zero likely stands for such cases as well. Survivors were counted at the toxicity check, usually on the fifth day, unless a day is given; later deaths do not show. Schedules are NCI's codes, taken here to give the interval after Q, in days (D) or hours (H), and the number of doses after X. Some schedules carry Z or #; the key to these is not given. Some entries hold several experiments; the results are listed from low to high. Some molecules as drawn cover several salts, stereoisomers or complexes of the source; a dose is that of the sample tested. Where survival is the endpoint, the PubChem record calls one and a half times the control and up active, and a quarter to a half above the control has no call in these data; cut-offs in other NCI protocols can differ.
Tested on: L1210 leukemia ip in BDF1 mice, survival T/C
Experiment: NCI In Vivo Anticancer Drug Screen. Data for tumor model L1210 Leukemia (intraperitoneal) in B6D2F1 (BDF1) mice
Settings: T/C endpoint: mean survival time, higher T/C = longer survival
[1] = dose: 100.0 mg/kg/injection, schedule: Q01DX009 (ip), vehicle: saline
[2] = dose: 200.0 mg/kg/injection, schedule: Q04DX003 (ip), vehicle: saline
[3] = dose: 400.0 mg/kg/injection, schedule: Q04DX003 (ip), vehicle: saline
[4] = dose: 100.0 mg/kg/injection, schedule: Q04DX002 (ip), vehicle: Klucel (hydroxypropylcellulose) (HPC)
[5] = dose: 200.0 mg/kg/injection, schedule: Q04DX002 (ip), vehicle: Klucel (hydroxypropylcellulose) (HPC)
[6] = dose: 400.0 mg/kg/injection, schedule: Q04DX002 (ip), vehicle: Klucel (hydroxypropylcellulose) (HPC)
[7] = dose: 200.0 mg/kg/injection, schedule: Q04DX002 (ip), vehicle: saline with Tween-80
[8] = dose: 400.0 mg/kg/injection, schedule: Q01DX001 (ip), vehicle: carboxymethylcellulose (CMC)
[9] = dose: 200.0 mg/kg/injection, schedule: Q01DX009 (ip), vehicle: Klucel (hydroxypropylcellulose) (HPC)

With `Nc1nc(N)c(C=O)c(Cl)n1` the survivor count (dose: 50.0 mg/kg/injection, schedule: Q01DX001 (ip), vehicle: alcohol) was 4 of 4, the survivor count (dose: 100.0 mg/kg/injection, schedule: Q01DX001 (ip), vehicle: alcohol) was 3 of 4 and the survivor count (dose: 200.0 mg/kg/injection, schedule: Q01DX001 (ip), vehicle: alcohol) was 1 of 4. The survivor count (dose: 400.0 mg/kg/injection, schedule: Q01DX001 (ip), vehicle: alcohol) was 0 of 4.
`COc1cc2ccc3ccncc3c2cc1OC` was tested, and the survivor count [1] was 2 of 6, the survivor count [2] was 3 of 6 and the survivor count [3] was 2 of 6.
In the case of `CC(C)CCCC(C)C1CCC2C3CC(O)C45CC4CCC5(C)C3CCC12C` (stereo unspecified), the survivor count [4] is reported as 3 of 3.
`O=C(O)c1cccc(Br)c1.[Ni]` was tested, and the survivor count [4] was 0 of 3 and 2 of 3, the survivor count [5] was 0 of 3 and the survivor count [6] was 1 of 3.
For `NC(=O)C[CH2][Sn]([c]1ccccc1)([c]1ccccc1)[c]1ccccc1`, the survivor count (dose: 200.0 mg/kg/injection, schedule: Q01DX009 (ip), vehicle: saline with Tween-80) was 0 of 3.
For `CC12CC1(C)C(=O)OC2=O` (stereo unspecified), the survivor count (dose: 400.0 mg/kg/injection, schedule: Q04DX003 (ip), vehicle: saline with Tween-80) was 3 of 6.
With `O=[N+]([O-])c1ccc(SC2=NCCCN2)c([N+](=O)[O-])c1` the survivor count (dose: 50.0 mg/kg/injection, schedule: Q04DX002 (ip), vehicle: Klucel (hydroxypropylcellulose) (HPC)) was 0 of 3, the survivor count [4] was 0 of 3 and the survivor count [5] was 0 of 3. For the same compound, the survivor count [6] was 0 of 3.
`CCCCCCCC(C)NCCO` (stereo unspecified) was tested, and the survivor count (dose: 150.0 mg/kg/injection, schedule: Q01DX001 (ip), vehicle: carboxymethylcellulose (CMC)) was 3 of 6 and the survivor count (dose: 300.0 mg/kg/injection, schedule: Q01DX001 (ip), vehicle: carboxymethylcellulose (CMC)) was 0 of 6.
With `CC(=O)/C(C)=C/C(=O)O` the survivor count [2] was 2 of 6 and the survivor count [3] was 1 of 6.
In the case of `Nc1nc(N)nc(Cl)n1`, the survivor count [7] is reported as 3 of 3.
For `CCC(CCl)NC(CC(C)C)CC(C)C` (stereo unspecified), the survivor count (dose: 300.0 mg/kg/injection, schedule: Q01DX001 (ip), vehicle: saline) was 0 of 6 and 2 of 6.
For `O=C(NCCCCCCCCCCCCNC(=O)Nc1cccc(C2=NCC(O)CN2)c1)Nc1cccc(C2=NCC(O)CN2)c1` (stereo unspecified), the survivor count (dose: 250.0 mg/kg/injection, schedule: Q01DX Z (ip), vehicle: carboxymethylcellulose (CMC)) was 1 of 5 and the survivor count (dose: 500.0 mg/kg/injection, schedule: Q01DX Z (ip), vehicle: carboxymethylcellulose (CMC)) was 0 of 6.
In the case of `Nc1ccc(CCCNc2c(N)nc(N)nc2-c2ccccc2)cc1`, the survivor count (dose: 400.0 mg/kg/injection, schedule: Q01DX001 (ip), vehicle: saline) is reported as 2 of 4.
For `CCCCCCCCCC(=O)OCC1OC(=O)C(C)N(C)C(=O)CN(C)C(=O)C2C(=O)CC(C)N2C(=O)C(C(C)C)NC(=O)C1NC(=O)c1c2nc3c(C(=O)NC4C(=O)NC(C(C)C)C(=O)N5C(C)CC(OC(=O)CCCCCCCCC)C5C(=O)N(C)CC(=O)N(C)C(C(C)C)C(=O)OC4C)ccc(C)c3oc-2c(C)c(=O)c1N` (stereo unspecified), the survivor count (dose: 25.6 mg/kg/injection, schedule: Q01DX001 (ip), vehicle: Klucel (hydroxypropylcellulose) (HPC)) was 7 of 8.
`CN(C)C(=S)N1C(=O)C2C3CCC(O3)C2C1=O` (stereo unspecified) was tested, and the survivor count (dose: 12.5 mg/kg/injection, schedule: Q01DX009 (ip), vehicle: saline with Tween-80) was 0 of 3, the survivor count (dose: 25.0 mg/kg/injection, schedule: Q04DX002 (ip), vehicle: saline with Tween-80) was 0 of 3 and the survivor count (dose: 100.0 mg/kg/injection, schedule: Q04DX002 (ip), vehicle: saline with Tween-80) was 0 of 3. For the same compound, the survivor count [7] was 0 of 3 and the survivor count (dose: 400.0 mg/kg/injection, schedule: Q04DX002 (ip), vehicle: saline with Tween-80) was 0 of 3.
`O=c1c2ccccc2[nH]c2ccccc12` was tested, and the survivor count (dose: 100.0 mg/kg/injection, schedule: Q04DX003 (ip), vehicle: Klucel (hydroxypropylcellulose) (HPC)) was 1 of 6.
`Cc1ccc(S(=O)(=O)F)cc1C(=O)O` was tested, and the survivor count [8] was 0 of 3 and 0 of 6, the survivor count (dose: 400.0 mg/kg/injection, schedule: Q01DX009 (ip), vehicle: carboxymethylcellulose (CMC)) was 0 of 3 and 0 of 6 and the survivor count (dose: 400.0 mg/kg/injection, schedule: Q04DX002 (ip), vehicle: gum acacia) was 1 of 3.
In the case of `CSc1ccc(NC(=O)Oc2cc(C)ccc2C(C)C)cc1`, the survivor count [9] is reported as 6 of 6.
`O=C(O)CCCOc1cc(Cl)c(Cl)cc1Cl` was tested, and the survivor count (dose: 200.0 mg/kg/injection, schedule: Q01DX001 (ip), vehicle: carboxymethylcellulose (CMC)) was 4 of 4 and the survivor count [8] was 4 of 4.
In the case of `CN(C)CCC(CN=C(N)N)c1cccc2ccccc12` (stereo unspecified), the survivor count (dose: 100.0 mg/kg/injection, schedule: Q01DX009 (ip), vehicle: Klucel (hydroxypropylcellulose) (HPC)) is reported as 0 of 6, the survivor count (dose: 100.0 mg/kg/injection, schedule: Q04DX002 (ip), vehicle: saline) is reported as 1 of 3 and the survivor count [9] is reported as 0 of 6. The survivor count (dose: 400.0 mg/kg/injection, schedule: Q01DX009 (ip), vehicle: Klucel (hydroxypropylcellulose) (HPC)) was 0 of 6.
`O=C(Nc1ccc(NC2=NCCN2)cc1)c1cccc(C(=O)Nc2ccc(NC3=NCCN3)cc2)c1` was tested, and the survivor count (dose: 15.0 mg/kg/injection, schedule: Q01DX Z (ip), vehicle: methylcellulose (MC)) was 5 of 6, the survivor count (dose: 30.0 mg/kg/injection, schedule: Q01DX Z (ip), vehicle: methylcellulose (MC)) was 1 of 6 and the survivor count (dose: 60.0 mg/kg/injection, schedule: Q01DX Z (ip), vehicle: methylcellulose (MC)) was 0 of 6. For the same compound, the survivor count (dose: 120.0 mg/kg/injection, schedule: Q01DX Z (ip), vehicle: methylcellulose (MC)) was 0 of 6.
For `CCCCCCC(=O)CCCCCC/C=C/CC(O)C(O)C(N)(CO)C(=O)O` (stereo unspecified), the survivor count (dose: 3.13 mg/kg/injection, schedule: Q04DX002 (ip), vehicle: saline with Tween-80) was 3 of 3, the survivor count (dose: 6.25 mg/kg/injection, schedule: Q04DX002 (ip), vehicle: saline with Tween-80) was 1 of 3 and the survivor count (dose: 12.5 mg/kg/injection, schedule: Q04DX002 (ip), vehicle: saline with Tween-80) was 0 of 3.
`NC(CSC(c1ccccc1)(c1ccccc1)c1ccc(F)cc1)C(=O)O` (stereo unspecified) was tested, and the T/C (dose: 12.5 mg/kg/injection, schedule: Q01DX009 (ip), vehicle: saline) was 128 % of control, the T/C (dose: 25.0 mg/kg/injection, schedule: Q01DX009 (ip), vehicle: other) was 128 % of control and the T/C (dose: 25.0 mg/kg/injection, schedule: Q01DX009 (ip), vehicle: saline) was 137 % of control. For the same compound, the T/C (dose: 50.0 mg/kg/injection, schedule: Q01DX009 (ip), vehicle: other) was 144 % of control, the survivor count [1] was 2 of 6 and the survivor count (dose: 200.0 mg/kg/injection, schedule: Q01DX009 (ip), vehicle: other) was 4 of 6.

Source: PubChem BioAssay AID248 (DTP/NCI, 2004)
